One assay deals with T1, hAng2.
T1 sequence: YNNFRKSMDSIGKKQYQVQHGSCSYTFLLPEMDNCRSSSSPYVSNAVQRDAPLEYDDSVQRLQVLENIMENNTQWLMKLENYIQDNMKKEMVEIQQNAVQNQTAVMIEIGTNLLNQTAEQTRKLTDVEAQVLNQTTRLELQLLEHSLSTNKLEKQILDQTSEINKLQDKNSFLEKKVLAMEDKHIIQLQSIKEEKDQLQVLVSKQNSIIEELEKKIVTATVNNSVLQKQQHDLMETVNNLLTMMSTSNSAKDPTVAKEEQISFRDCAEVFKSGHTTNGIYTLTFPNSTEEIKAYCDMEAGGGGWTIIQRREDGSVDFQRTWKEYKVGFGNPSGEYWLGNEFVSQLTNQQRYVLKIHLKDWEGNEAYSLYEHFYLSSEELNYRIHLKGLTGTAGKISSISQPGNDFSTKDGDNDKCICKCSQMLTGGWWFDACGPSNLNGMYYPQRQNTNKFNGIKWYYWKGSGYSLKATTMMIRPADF
Description: competition ELISA, blocking of hAng2 binding to hTie2. (In general: In an ELISA, binding on a coated surface is turned into a signal by an enzyme label.)

The next assay deals with T2, mAng2.
T2 sequence: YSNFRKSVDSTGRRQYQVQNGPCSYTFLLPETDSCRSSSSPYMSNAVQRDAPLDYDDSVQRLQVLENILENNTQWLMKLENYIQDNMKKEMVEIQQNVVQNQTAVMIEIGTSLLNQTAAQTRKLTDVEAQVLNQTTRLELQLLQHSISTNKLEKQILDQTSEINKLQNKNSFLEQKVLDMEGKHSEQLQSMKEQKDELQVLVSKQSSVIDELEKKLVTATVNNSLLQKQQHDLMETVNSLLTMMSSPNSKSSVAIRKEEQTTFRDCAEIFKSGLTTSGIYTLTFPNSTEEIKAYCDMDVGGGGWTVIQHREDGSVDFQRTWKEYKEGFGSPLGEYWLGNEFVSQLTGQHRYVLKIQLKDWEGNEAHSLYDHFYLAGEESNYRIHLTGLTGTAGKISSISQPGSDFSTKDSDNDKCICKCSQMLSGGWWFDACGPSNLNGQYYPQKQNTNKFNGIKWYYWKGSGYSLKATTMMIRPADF
Description: competition ELISA, blocking of mAng2 binding to mTie2.

These are yes or no findings as the source states them, for the method shown. Some results given as binding are weak or reduced against the parent protein; the word gives no strength.

B1: ANGBII00003 (VHH)
bivalent VHH: EVQLVESGGGLVQVGDSLRLSCAASGRTFSTYLMVGWFRQAPGKEREFAAGIWSSGDTAYADSVRGRFTISRDNAKNTVYLQMNSLKTEDTAVYYCAGSYDGNYYIPGFYKDWGQGTLVTVSSGGGGSGGGSEVQLVESGGGLVQVGDSLRLSCAASGRTFSTYLMVGWFRQAPGKEREFAAGIWSSGDTAYADSVRGRFTISRDNAKNTVYLQMNSLKTEDTAVYYCAGSYDGNYYIPGFYKDWGQGTLVTVSS
On to B1, for which the binding result with hAng2 and with mAng2 was “binds” each time.

The values above are taken from patent US20170247475A1.
